This continues a long series; more values of the same kind are listed elsewhere.
Tests used:
Type in all cases: cell-based
Details in all cases: U-87MG ATCC
[1] = Inhibition of RTK/PI3K/AKT/mTOR signaling in human U87 cells assessed as down regulation of ZNF697 gene expression at cytotoxic IC50 measured after 48 hrs relative to control
[2] = Inhibition of RTK/PI3K/AKT/mTOR signaling in human U87 cells assessed as down regulation of MGAM gene expression at cytotoxic IC50 measured after 48 hrs relative to control
[3] = Inhibition of RTK/PI3K/AKT/mTOR signaling in human U87 cells assessed as down regulation of SYNJ1 gene expression at cytotoxic IC50 measured after 48 hrs relative to control
[4] = Inhibition of RTK/PI3K/AKT/mTOR signaling in human U87 cells assessed as down regulation of CLSPN gene expression at cytotoxic IC50 measured after 48 hrs relative to control
[5] = Inhibition of RTK/PI3K/AKT/mTOR signaling in human U87 cells assessed as down regulation of HIST1H1C gene expression at cytotoxic IC50 measured after 48 hrs relative to control
[6] = Inhibition of RTK/PI3K/AKT/mTOR signaling in human U87 cells assessed as down regulation of ZNF845 gene expression at cytotoxic IC50 measured after 48 hrs relative to control
[7] = Inhibition of RTK/PI3K/AKT/mTOR signaling in human U87 cells assessed as down regulation of TCF19 gene expression at cytotoxic IC50 measured after 48 hrs relative to control
[8] = Inhibition of RTK/PI3K/AKT/mTOR signaling in human U87 cells assessed as down regulation of PHLDB3 gene expression at cytotoxic IC50 measured after 48 hrs relative to control
[9] = Inhibition of RTK/PI3K/AKT/mTOR signaling in human U87 cells assessed as down regulation of WDR37 gene expression at cytotoxic IC50 measured after 48 hrs relative to control
[10] = Inhibition of RTK/PI3K/AKT/mTOR signaling in human U87 cells assessed as down regulation of JAK2 gene expression at cytotoxic IC50 measured after 48 hrs relative to control
[11] = Inhibition of RTK/PI3K/AKT/mTOR signaling in human U87 cells assessed as down regulation of ZNF746 gene expression at cytotoxic IC50 measured after 48 hrs relative to control
[12] = Inhibition of RTK/PI3K/AKT/mTOR signaling in human U87 cells assessed as down regulation of WDR44 gene expression at cytotoxic IC50 measured after 48 hrs relative to control
[13] = Inhibition of RTK/PI3K/AKT/mTOR signaling in human U87 cells assessed as down regulation of CLTB gene expression at cytotoxic IC50 measured after 48 hrs relative to control
[14] = Inhibition of RTK/PI3K/AKT/mTOR signaling in human U87 cells assessed as down regulation of STK38L gene expression at cytotoxic IC50 measured after 48 hrs relative to control
[15] = Inhibition of RTK/PI3K/AKT/mTOR signaling in human U87 cells assessed as down regulation of CNP gene expression at cytotoxic IC50 measured after 48 hrs relative to control
[16] = Inhibition of RTK/PI3K/AKT/mTOR signaling in human U87 cells assessed as down regulation of SYF2 gene expression at cytotoxic IC50 measured after 48 hrs relative to control
[17] = Inhibition of RTK/PI3K/AKT/mTOR signaling in human U87 cells assessed as down regulation of QSOX1 gene expression at cytotoxic IC50 measured after 48 hrs relative to control
[18] = Inhibition of RTK/PI3K/AKT/mTOR signaling in human U87 cells assessed as up regulation of ARTN gene expression at cytotoxic IC50 measured after 48 hrs relative to control
[19] = Inhibition of RTK/PI3K/AKT/mTOR signaling in human U87 cells assessed as up regulation of DGAT2 gene expression at cytotoxic IC50 measured after 48 hrs relative to control
[20] = Inhibition of RTK/PI3K/AKT/mTOR signaling in human U87 cells assessed as up regulation of PDK1 gene expression at cytotoxic IC50 measured after 48 hrs relative to control
[21] = Inhibition of RTK/PI3K/AKT/mTOR signaling in human U87 cells assessed as up regulation of HIST3H2A gene expression at cytotoxic IC50 measured after 48 hrs relative to control
[22] = Inhibition of RTK/PI3K/AKT/mTOR signaling in human U87 cells assessed as up regulation of PLOD1 gene expression at cytotoxic IC50 measured after 48 hrs relative to control
[23] = Inhibition of RTK/PI3K/AKT/mTOR signaling in human U87 cells assessed as up regulation of TGIF2 gene expression at cytotoxic IC50 measured after 48 hrs relative to control
[24] = Inhibition of RTK/PI3K/AKT/mTOR signaling in human U87 cells assessed as up regulation of SYT1 gene expression at cytotoxic IC50 measured after 48 hrs relative to control
[25] = Inhibition of RTK/PI3K/AKT/mTOR signaling in human U87 cells assessed as up regulation of AKAP1 gene expression at cytotoxic IC50 measured after 48 hrs relative to control
[26] = Inhibition of RTK/PI3K/AKT/mTOR signaling in human U87 cells assessed as up regulation of hematopoietic SH2 domain containing gene expression at cytotoxic IC50 measured after 48 hrs relative to control
[27] = Inhibition of RTK/PI3K/AKT/mTOR signaling in human U87 cells assessed as up regulation of mitochondrial ribosomal protein L12 gene expression at cytotoxic IC50 measured after 48 hrs relative to control
[28] = Inhibition of RTK/PI3K/AKT/mTOR signaling in human U87 cells assessed as up regulation of interferon induced transmembrane protein 3 gene expression at cytotoxic IC50 measured after 48 hrs relative to control
[29] = Inhibition of RTK/PI3K/AKT/mTOR signaling in human U87 cells assessed as up regulation of phospholipase D family member 3 gene expression at cytotoxic IC50 measured after 48 hrs relative to control
[30] = Inhibition of RTK/PI3K/AKT/mTOR signaling in human U87 cells assessed as up regulation of PCK2 gene expression at cytotoxic IC50 measured after 48 hrs relative to control
[31] = Inhibition of RTK/PI3K/AKT/mTOR signaling in human U87 cells assessed as up regulation of MICAL2 gene expression at cytotoxic IC50 measured after 48 hrs relative to control
[32] = Inhibition of RTK/PI3K/AKT/mTOR signaling in human U87 cells assessed as up regulation of RAD23B gene expression at cytotoxic IC50 measured after 48 hrs relative to control

`CC(=O)C(=NNc1ccccc1C#N)C(C)=O` showed a log2FC [1] of -3.09, a log2FC [2] of -2.93 and a log2FC [3] of -2.27. The log2FC [4] was -2.2, the log2FC [5] was -2.17 and the log2FC [6] was -1.61. For the same compound, the log2FC [7] was -1.39, the log2FC [8] was -1.37 and the log2FC [9] was -1.2. The log2FC [10] was -1.11, the log2FC [11] was -0.888 and the log2FC [12] was -0.815. For the same compound, the log2FC [13] was -0.686, the log2FC [14] was -0.661 and the log2FC [15] was -0.552. The log2FC [16] was -0.489, the log2FC [17] was -0.445 and the log2FC [18] was 2.65. It also gave a log2FC [19] of 2.4, a log2FC [20] of 2.17 and a log2FC [21] of 2.02. For the same compound, the log2FC [22] was 1.83, the log2FC [23] was 1.77 and the log2FC [24] was 1.77. It also gave a log2FC [25] of 1.6, a log2FC [26] of 1.11 and a log2FC [27] of 0.988. It also gave a log2FC [28] of 0.895, a log2FC [29] of 0.808 and a log2FC [30] of 0.535. The log2FC [31] was 0.533 and the log2FC [32] was 0.489.
